The target in the experiment is GST-p38 fusion protein. Kind of experiment: pull-down; hTCEpi cell lysates (untreated or TNF-α 10 ng/ml) incubated at 4°C for 1 h with GST-p38 fusion protein, then glutathione-agarose at 4°C overnight; egg lysis buffer (50 mM Tris pH 7.5, 0.1% NP40, 120 mM NaCl); Western blot; only the target purified. On the technique in general: Immunoblotting shows a protein as a band on a membrane.

No constants are given. Whether binding was seen depends on the method and setting. In cells and extracts the contact can be indirect. A result given as binding can be weak or reduced; the word gives no strength.

The values that follow come from paper PMC3022035.

B1: IκB kinase β (IKKβ), endogenous in hTCEpi cells (enzyme, UniProt O14920 1-756)
chain: MSWSPSLTTQTCGAWEMKERLGTGGFGNVIRWHNQETGEQIAIKQCRQELSPRNRERWCLEIQIMRRLTHPNVVAARDVPEGMQNLAPNDLPLLAMEYCQGGDLRKYLNQFENCCGLREGAILTLLSDIASALRYLHENRIIHRDLKPENIVLQQGEQRLIHKIIDLGYAKELDQGSLCTSFVGTLQYLAPELLEQQKYTVTVDYWSFGTLAFECITGFRPFLPNWQPVQWHSKVRQKSEVDIVVSEDLNGTVKFSSSLPYPNNLNSVLAERLEKWLQLMLMWHPRQRGTDPTYGPNGCFKALDDILNLKLVHILNMVTGTIHTYPVTEDESLQSLKARIQQDTGIPEEDQELLQEAGLALIPDKPATQCISDGKLNEGHTLDMDLVFLFDNSKITYETQISPRPQPESVSCILQEPKRNLAFFQLRKVWGQVWHSIQTLKEDCNRLQQGQRAAMMNLLRNNSCLSKMKNSMASMSQQLKAKLDFFKTSIQIDLEKYSEQTEFGITSDKLLLAWREMEQAVELCGRENEVKLLVERMMALQTDIVDLQRSPMGRKQGGTLDDLEEQARELYRRLREKPRDQRTEGDSQEMVRLLLQAIQSFEKKVRVIYTQLSKTVVCKQKALELLPKVEEVVSLMNEDEKTVVRLQEKRQKELWNLLKIACSKVRGPVSGSPDSMNASRLSQPGQLMSQPSTASNSLPEPAKKSEELVAEAHNLCTLLENAIQDTVREQDQSFTALDWSWLQTEEEEHSCLEQAS
For the molecule B1, the binding result was “binds”.
